Data set [1] relates to GST-GhWRKY33 (Gossypium hirsutum). The experiment in a line: EMSA. The settings on record: Chemiluminescent EMSA Kit (Beyotime), manufacturer's protocol, pH and temperature not stated, recombinant protein, protein details: N-terminal GST. A general note: In EMSA bound probe runs differently from free probe, usually more slowly.
In the next data set the target is GST (UniProt P08515). The experiment in a line: EMSA. The settings on record: Chemiluminescent EMSA Kit (Beyotime), manufacturer's protocol; pH and temperature not stated; recombinant protein; label: 5' biotin.
The mark [2] stands for this setting: signal decreased by unlabeled WT competitor, label: 5' biotin.

Chains of the proteins cited; added tags and fusions are not shown. Chains listed by the source or under a name are the forms on record and can include a tag or linker.
UniProt P08515, whole entry: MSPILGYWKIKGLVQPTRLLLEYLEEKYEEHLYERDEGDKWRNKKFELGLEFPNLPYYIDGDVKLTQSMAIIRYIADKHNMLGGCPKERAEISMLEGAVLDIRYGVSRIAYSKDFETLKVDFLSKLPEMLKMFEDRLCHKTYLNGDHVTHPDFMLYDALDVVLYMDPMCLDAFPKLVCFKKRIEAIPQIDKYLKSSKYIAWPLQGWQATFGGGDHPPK
GST-GhWRKY33 (Gossypium hirsutum), one chain, as listed by the source: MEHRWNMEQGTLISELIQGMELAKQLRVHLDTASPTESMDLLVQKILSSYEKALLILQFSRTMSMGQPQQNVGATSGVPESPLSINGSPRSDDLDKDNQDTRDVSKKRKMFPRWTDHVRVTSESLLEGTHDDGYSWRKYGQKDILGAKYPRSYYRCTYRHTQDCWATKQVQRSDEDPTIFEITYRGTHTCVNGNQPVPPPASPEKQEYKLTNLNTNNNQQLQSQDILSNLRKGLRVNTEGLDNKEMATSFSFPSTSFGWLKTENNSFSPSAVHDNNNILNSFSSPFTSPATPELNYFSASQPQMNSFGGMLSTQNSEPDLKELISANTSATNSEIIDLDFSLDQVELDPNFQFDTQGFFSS

Construct, isoform or probe ends are uncertain for at least one entry. A negative result means that nothing was seen under these conditions. For some assays here: At least one verdict was read from the data and is not stated in words by the source.

For the sequence “ACAATAATTGGTACAAAAATGAAATTTGTAAG (double strand) [m-proGhcysp probe]”, the binding result in data set [1] is “no binding”.
The same measure, in the same setting: the result for “ATTGTGATTTAATTTGTTTTTTAGGGCGATT (double strand) [m-proAtSAG12 probe]” reads “no binding”.
Take “ACAATAATTGGTACGTCAATGAAATTTGTAAG (double strand) [proGhcysp probe]”: in data set [1] (setting [2]), the binding result is “binds”.
On to “ATTGTGATTTAATTTGTTGACTAGGGCGATT (double strand) [proAtSAG12 probe]”, for which the binding result is “no binding” in the data set with GST and “binds” in data set [1] (setting [2]).

Source of the values: PMC9367327.
